Test results: publication PMC11059408, “Atypical heat shock transcription factor HSF5 is critical for male meiotic prophase under non-stress conditions” (Nature Communications, 2023)
Results are given in words; binding and its absence hold for the method and conditions named. Binding seen in cells or lysates may run through a third protein. Here binding means that the protein was enriched with, or labelled near, the bait; the list need not be complete.

Sequences of proteins named here, by UniProt entry; tags and fusion partners are left off.
UniProt O09106: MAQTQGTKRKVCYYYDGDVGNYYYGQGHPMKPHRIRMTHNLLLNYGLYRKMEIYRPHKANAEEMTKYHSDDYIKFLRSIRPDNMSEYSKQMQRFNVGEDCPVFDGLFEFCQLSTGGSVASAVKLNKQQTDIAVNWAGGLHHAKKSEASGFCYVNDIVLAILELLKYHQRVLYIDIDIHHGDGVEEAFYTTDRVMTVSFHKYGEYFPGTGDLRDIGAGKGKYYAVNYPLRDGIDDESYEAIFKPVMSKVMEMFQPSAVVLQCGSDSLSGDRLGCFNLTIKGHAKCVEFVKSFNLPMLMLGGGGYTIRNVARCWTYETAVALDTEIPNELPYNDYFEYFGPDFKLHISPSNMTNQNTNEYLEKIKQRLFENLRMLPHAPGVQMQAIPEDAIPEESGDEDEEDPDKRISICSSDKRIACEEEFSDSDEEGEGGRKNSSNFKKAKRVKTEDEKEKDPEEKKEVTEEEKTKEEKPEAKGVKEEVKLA
UniProt P97496: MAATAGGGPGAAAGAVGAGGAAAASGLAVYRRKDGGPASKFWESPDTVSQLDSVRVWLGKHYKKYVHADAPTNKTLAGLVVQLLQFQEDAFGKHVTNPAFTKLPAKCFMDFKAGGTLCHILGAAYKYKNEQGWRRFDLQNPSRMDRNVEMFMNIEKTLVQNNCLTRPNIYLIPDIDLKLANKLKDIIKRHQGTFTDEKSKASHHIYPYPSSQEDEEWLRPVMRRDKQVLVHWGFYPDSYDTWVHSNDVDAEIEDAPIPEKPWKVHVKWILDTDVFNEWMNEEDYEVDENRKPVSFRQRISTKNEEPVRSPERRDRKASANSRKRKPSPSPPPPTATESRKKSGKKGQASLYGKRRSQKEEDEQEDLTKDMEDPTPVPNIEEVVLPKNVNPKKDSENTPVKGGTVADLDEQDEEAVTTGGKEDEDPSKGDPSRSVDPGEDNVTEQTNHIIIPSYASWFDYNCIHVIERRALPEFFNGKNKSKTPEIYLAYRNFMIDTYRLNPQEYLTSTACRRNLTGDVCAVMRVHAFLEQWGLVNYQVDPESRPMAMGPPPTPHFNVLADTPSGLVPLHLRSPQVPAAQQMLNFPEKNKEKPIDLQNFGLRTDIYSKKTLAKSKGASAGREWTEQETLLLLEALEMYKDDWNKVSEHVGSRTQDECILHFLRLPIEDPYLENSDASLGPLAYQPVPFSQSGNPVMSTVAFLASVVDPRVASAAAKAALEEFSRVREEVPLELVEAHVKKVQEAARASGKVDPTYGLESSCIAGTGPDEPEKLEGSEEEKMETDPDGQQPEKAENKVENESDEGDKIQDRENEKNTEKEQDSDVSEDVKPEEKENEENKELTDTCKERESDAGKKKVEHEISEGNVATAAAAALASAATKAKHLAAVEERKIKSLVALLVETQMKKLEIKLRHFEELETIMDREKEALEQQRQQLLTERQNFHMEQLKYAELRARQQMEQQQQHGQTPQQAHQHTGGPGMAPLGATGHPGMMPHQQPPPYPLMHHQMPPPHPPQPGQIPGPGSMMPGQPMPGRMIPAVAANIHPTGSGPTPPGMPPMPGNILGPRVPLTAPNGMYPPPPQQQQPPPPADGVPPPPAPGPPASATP
UniProt O54941: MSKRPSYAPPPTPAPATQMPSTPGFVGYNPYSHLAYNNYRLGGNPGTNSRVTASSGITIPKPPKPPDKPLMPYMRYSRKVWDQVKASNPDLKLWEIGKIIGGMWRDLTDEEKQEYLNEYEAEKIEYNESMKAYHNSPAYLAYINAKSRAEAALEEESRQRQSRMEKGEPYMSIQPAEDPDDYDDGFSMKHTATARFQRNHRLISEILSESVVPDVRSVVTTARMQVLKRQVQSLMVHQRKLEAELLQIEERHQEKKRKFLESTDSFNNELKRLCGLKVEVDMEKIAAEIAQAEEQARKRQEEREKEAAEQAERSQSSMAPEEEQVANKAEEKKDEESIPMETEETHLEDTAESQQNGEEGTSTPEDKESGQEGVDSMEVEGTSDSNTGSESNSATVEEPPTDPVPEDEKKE

Target: T1, HSF5 (endogenous, mouse testis) (mouse (endogenous in testis)) (UniProt Q5ND04)
T1 sequence: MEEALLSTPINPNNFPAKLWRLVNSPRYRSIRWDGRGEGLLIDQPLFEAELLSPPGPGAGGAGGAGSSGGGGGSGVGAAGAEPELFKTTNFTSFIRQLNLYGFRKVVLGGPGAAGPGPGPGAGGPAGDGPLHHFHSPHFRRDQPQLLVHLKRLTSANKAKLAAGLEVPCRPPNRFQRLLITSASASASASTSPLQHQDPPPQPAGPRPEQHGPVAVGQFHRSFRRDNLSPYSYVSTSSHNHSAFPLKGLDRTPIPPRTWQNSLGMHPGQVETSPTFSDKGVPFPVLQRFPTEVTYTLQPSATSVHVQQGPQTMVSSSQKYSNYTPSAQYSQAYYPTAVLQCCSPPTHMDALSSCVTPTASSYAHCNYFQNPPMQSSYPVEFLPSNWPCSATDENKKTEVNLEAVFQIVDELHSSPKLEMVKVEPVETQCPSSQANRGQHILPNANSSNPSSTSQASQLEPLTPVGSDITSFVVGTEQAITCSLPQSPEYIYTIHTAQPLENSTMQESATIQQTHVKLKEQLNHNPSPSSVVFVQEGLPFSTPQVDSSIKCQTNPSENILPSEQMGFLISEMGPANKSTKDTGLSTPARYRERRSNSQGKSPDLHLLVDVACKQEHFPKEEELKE
Experiment: affinity purification with mass spectrometry; endogenous HSF5 immunoprecipitated from mouse testis extracts with anti-HSF5-C, HSF5-N1 and HSF5-N2 antibodies crosslinked to protein A-Dynabeads; control IgG; washed with low salt extraction buffer; LC-MS/MS

binding	Substance
binds	HDAC1 (from UniProt O09106 1-482)
binds	SMARCC1 (from UniProt P97496 1-1104)
binds	SMARCE1 (from UniProt O54941 1-411)
